Experimental data: PubChem BioAssay AID504791 (Drosophila RNAi Screening Center, 2011)
The screen tested about 23,000 reagents; shown is an unselected part of those that have a named target and a result. Over the whole deposit, 199 (0.86%) got an active call. 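Plate-scaled ratios behind the calls are not deposited; printed light signals are raw; many rows marked increased or decreased are still called inactive.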 Entries without a mark were called inactive. A plus sign joins genes that one reagent is predicted to hit. Not given: the direction of the score.

- Purpose: 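Factors in Argonaute-based small RNA production and activity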 (primary screen)
- Cell system: Drosophila S2-derived reporter cells
- Reagent: long dsRNA against Drosophila genes, about 150-250 ng dsRNA per well (siRNA assay); about 80-120 ng (miRNA assay)
- Timing: about 5 days (siRNA assay); about 4 days (miRNA assay)
- Conditions: copper sulfate induction of reporters: 25 µM (siRNA assay); 200 mM stated (miRNA assay), 1-2 days before reading
- Detection: 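Dual luciferase assay: Renilla to firefly signal ratio in each well, scaled to the mean ratio of its plate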
- Active means: 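a well was a first-pass pick when its plate-scaled ratio rose above 1.5 (siRNA assay) or 1.6 (miRNA assay), or dropped below 0.6; a gene counted only if two separate dsRNAs agreed on retest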

| gene | amplicon | stable siRNA reporter change | miRNA reporter change | stable assay Renilla, run 1 (luminescence) | stable assay firefly, run 1 (luminescence) |
| --- | --- | --- | --- | --- | --- |
| Tti1 (Telo2 interacting protein 1) | DRSC15163 | – | – | 6667 | 3.73e5 |
| Rab9Fb (Rab at 9Fb) | DRSC19854 | – | – | 4819 | 4.03e5 |
| CG7579 | DRSC10885 | – | – | 7950 | 3.54e5 |
| Myo31DF (Myosin 31DF) | DRSC03376 | – | – | 7290 | 6.31e5 |
| Myo31DF (Myosin 31DF) | DRSC22702 | – | – | 3663 | 2.91e5 |
| cu (curled) | DRSC15643 | – | – | 5799 | 3.42e5 |
| cu (curled) | DRSC15648 | – | – | 5864 | 3.66e5 |
| ndl (nudel) | DRSC11374 | – | – | 6012 | 3.11e5 |
| CG6709 + Hez | DRSC10165 | – | – | 6622 | 3.80e5 |
| CG6709 + Hez | DRSC10698 | – | – | 5806 | 3.69e5 |
| NP15.6 | DRSC16756 | – | – | 7219 | 4.48e5 |
| alpha-Est4aPsi (pseudo) | DRSC12473 | – | – | 4647 | 2.97e5 |
| RpS11 (Ribosomal protein S11) | DRSC07289 | – | – | 6092 | 5.46e5 |
| RpS11 (Ribosomal protein S11) | DRSC22700 | – | – | 4300 | 4.98e5 |
| CG2260 | DRSC18223 | – | – | 7062 | 5.51e5 |
| I-t (inhibitor-t) | DRSC16713 | – | – | 6922 | 3.77e5 |
| Or9a (Odorant receptor 9a) | DRSC18692 | – | – | 4671 | 4.11e5 |
| dop (drop out) | DRSC10655 | – | – | 8503 | 3.49e5 |
| CG4691 | DRSC01950 | – | – | 24676 | 1.38e6 |
| Prosalpha6T (Proteasome alpha6 subunit, Testis-specific) | DRSC02873 | – | – | 7488 | 4.25e5 |
| Cad87A (Cadherin 87A) | DRSC16161 | – | – | 9030 | 5.75e5 |
| Hr39 (Hormone receptor-like in 39) | DRSC03346 | – | – | 7259 | 4.78e5 |
| CG41099 | DRSC21049 | – | – | 5787 | 3.35e5 |
| CG41099 | DRSC21051 | – | – | 5306 | 3.91e5 |
| CG5665 | DRSC11783 | – | – | 6879 | 4.54e5 |
| Alp6 (Alkaline phosphatase 6) | DRSC06710 | – | – | 7871 | 4.09e5 |
| CG10859 | DRSC02110 | – | – | 6900 | 1.35e6 |
| Lsm10 | DRSC06250 | – | – | 5487 | 3.41e5 |
| Tace | DRSC16340 | – | – | 7918 | 5.69e5 |
| CG3106 | DRSC18279 | – | – | 8002 | 6.49e5 |
| Ir75a (Ionotropic receptor 75a) | DRSC10188 | – | – | 7978 | 3.59e5 |
| CG7130 | DRSC11797 | – | – | 7534 | 4.63e5 |
| CG13837 | DRSC14687 | – | – | 5379 | 2.90e5 |
| CG30273 | DRSC22059 | – | – | 9309 | 4.66e5 |
| zfh2 (Zn finger homeodomain 2) | DRSC17178 | – | – | 8090 | 5.84e5 |
| CG33461 | DRSC22892 | – | – | 4427 | 3.87e5 |
| Bbd (Bombardier) | DRSC06709 | – | – | 7795 | 4.15e5 |
| Pdhb (Pyruvate dehydrogenase E1 beta subunit) | DRSC14420 | – | – | 8878 | 5.04e5 |
| CR14798 (pseudo) | DRSC17956 | – | – | 5718 | 4.41e5 |
| lgs (legless) | DRSC17152 | – | – | 7931 | 4.59e5 |
| chif (chiffon) | DRSC03508 | reporter ratio raised past the hit cutoff | – | 1.13e5 | 1.17e6 |
| CG10068 | DRSC12508 | – | – | 8114 | 3.86e5 |
| bru3 (bruno 3) | DRSC09280 | – | – | 6635 | 3.17e5 |
| bru3 (bruno 3) | DRSC09687 | – | – | 9075 | 5.02e5 |
| bru3 (bruno 3) | DRSC09887 | – | – | 7250 | 4.46e5 |
| bru3 (bruno 3) | DRSC22732 | – | – | 2339 | 3.25e5 |
| mRpL18 (mitochondrial ribosomal protein L18) | DRSC06142 | – | – | 4678 | 3.29e5 |
| PH4alphaSG2 (prolyl-4-hydroxylase-alpha SG2) | DRSC15037 | – | – | 6203 | 3.92e5 |
| BTBD9 (BTB (POZ) domain containing 9) | DRSC18148 | – | – | 4852 | 3.69e5 |
| BTBD9 (BTB (POZ) domain containing 9) | DRSC22371 | – | reporter ratio raised past the hit cutoff | 8353 | 4.14e5 |
| CG7514 | DRSC08597 | – | – | 6818 | 4.62e5 |
| CG15765 | DRSC18071 | – | – | 6866 | 2.76e5 |
| CG15765 | DRSC23026 | – | – | 3911 | 2.77e5 |

Next part (4 carried over from the part before).
| gene | amplicon | stable siRNA reporter change | miRNA reporter change | stable assay Renilla, run 1 (luminescence) | stable assay firefly, run 1 (luminescence) |
| --- | --- | --- | --- | --- | --- |
| BTBD9 (BTB (POZ) domain containing 9) | DRSC22371 | – | reporter ratio raised past the hit cutoff | 8353 | 4.14e5 |
| CG7514 | DRSC08597 | – | – | 6818 | 4.62e5 |
| CG15765 | DRSC18071 | – | – | 6866 | 2.76e5 |
| CG15765 | DRSC23026 | – | – | 3911 | 2.77e5 |
| Tob (Transducer of ERBB2) | DRSC20294 | – | – | 8235 | 4.37e5 |
| CG13124 | DRSC02220 | – | – | 42630 | 6.28e5 |
| Patronin | DRSC06756 | – | – | 7915 | 4.84e5 |
| Patronin | DRSC06757 | – | – | 6940 | 3.08e5 |
| Patronin | DRSC06994 | – | – | 6228 | 3.51e5 |
| CG15406 | DRSC00420 | – | – | 7083 | 4.28e5 |
| Klp59C (Kinesin-like protein at 59C) | DRSC04348 | – | – | 6086 | 3.25e5 |
| CG34404 | DRSC15335 | – | – | 7819 | 4.71e5 |
| CG34404 | DRSC15978 | – | – | 8323 | 5.69e5 |
| CG9265 | DRSC03178 | – | – | 6875 | 4.23e5 |
| CG9265 | DRSC03179 | – | – | 6706 | 4.08e5 |
| NimB4 (Nimrod B4) | DRSC01884 | – | – | 1.75e5 | 1.39e6 |
| CG34204 | DRSC03897 | – | – | 6051 | 5.39e5 |
| CG1275 | DRSC08294 | – | – | 12266 | 4.13e5 |
| CG10911 | DRSC06008 | – | – | 6760 | 3.62e5 |
| homer | DRSC03547 | – | – | 12336 | 7.18e5 |
| PIG-Wa (Phosphatidylinositol glycan anchor biosynthesis class W a) | DRSC00728 | – | – | 7886 | 3.78e5 |
| CG18367 | DRSC06545 | – | – | 4931 | 5.48e5 |
| Tep2 (Thioester-containing protein 2) | DRSC02679 | – | – | 9429 | 5.70e5 |
| Tep2 (Thioester-containing protein 2) | DRSC03451 | – | – | 11035 | 5.50e5 |
| ND-20 (NADH dehydrogenase (ubiquinone) 20 kDa subunit) | DRSC20164 | – | – | 6626 | 4.91e5 |
| Sf3b5 (Splicing factor 3b subunit 5) | DRSC14460 | – | reporter ratio lowered past the hit cutoff (active) | 8784 | 8.25e5 |
| Sap-r (Saposin-related) | DRSC16849 | – | – | 4475 | 3.97e5 |
| Sap-r (Saposin-related) | DRSC21916 | – | – | 8819 | 4.72e5 |
| SCCRO4 (Squamous cell carcinoma-related oncogene 4) | DRSC10671 | – | – | 6698 | 4.65e5 |
| CR30374 (pseudo) | DRSC05080 | – | – | 4635 | 4.90e5 |
| Rpt4 (Regulatory particle triple-A ATPase 4) | DRSC18713 | – | reporter ratio raised past the hit cutoff | 5927 | 2.61e5 |
| CG7168 | DRSC16208 | – | – | 8090 | 2.64e5 |
| fun (retired record) | DRSC12300 | – | – | 7791 | 4.47e5 |
| CG9259 | DRSC03174 | – | – | 6787 | 3.63e5 |
